According to patent US20200317813A1, “TREATMENT AND DIAGNOSIS OF NON-PROLIFERATIVE DIABETIC RETINOPATHY” (Johann Wolfgang Goethe-Universitat Frankfurt am Main, priority 2016, published 2020):

Settings: wild-type and Ins2Akita mice
[1] = sEH inhibitor from the age of 6 weeks

O=C(NC12CC3CC(CC(C3)C1)C2)N[C@H]1CC[C@H](Oc2ccc(C(=O)O)cc2)CC1 (relative stereo) [t-AUCB, trans-4-[4-(3-adamantan-1-ylureido)cyclohexyloxy]-benzoic acid]
did not affect: heart rate (assessed at the age of 12 months) | body weight [1] | fasting blood glucose [1]
